{"source": "PubChem BioAssay AID602313", "about": "(National Center for Advancing Translational Sciences (NCATS), 2012)", "note": "Among all 390,000 compounds or so, about 760 (0.19%) were called active. The inconclusive results got no clear call from the source; some entries with a clear call stand among them for comparison. Calls come from the whole dose curve; as a rule, active = well fitted inhibition curve with a large enough effect; inconclusive = small, poorly fitted or top-dose-only effect; inactive = flat fitted curve, though single readings scatter. Potencies of inconclusive entries are doubtful fits and often do not repeat. Potency is the fitted concentration of half-maximal effect."}
{"experiment": "qHTS for Inhibitors of Vif-A3F Interactions: qHTS; note: nearly all actives have a fitted effect of over 65% in size; for activity, negative = active: % of control where 0% means no effect", "conditions": "HeLa A3F-eYFP + Vif (tagged APOBEC3F with the HIV-1 protein that degrades it), YFP fluorescence increase; series mostly up to 46.1 µM; activity, negative = active: at the top concentration", "summary_of_the_method": "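HeLa cells stably expressing A3F-eYFP plus Vif, plated and incubated overnight at 37 deg C, then exposed to compounds overnight at 37 deg C. Blocked degradation read as raised yellow fluorescence (Ex 488/Em 500-530).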"}
{"molecule": "CCCN(CC(=O)Nc1ccccc1OC)C(=O)Cc1ccc2c(c1)CCC2", "activity, negative = active": "inactive: -1.26%"}
{"molecule": "CC(C)OC(=O)c1c(NC(=O)c2cc3nc(-c4ccccc4)cc(C(F)(F)F)n3n2)sc2c1CCCC2", "activity, negative = active": "inactive: 0.893%"}
{"molecule": "Cn1c(C2CCCCC2)nc2ccccc21", "Potency": "inconclusive: 35.5 µM [inhibitor, single point]"}
{"molecule": "O=C(CCN1C(=O)/C(=C\\c2ccccc2F)SC1=S)N1CCOCC1", "activity, negative = active": "inactive: -25.2%"}
{"molecule": "COc1ccc(NC(=S)NCCC2=CCCCC2)cc1OC", "Potency": "inconclusive: 35.5 µM [inhibitor, single point]"}
{"molecule": "CC(=O)N/C(=C\\c1ccccc1)C(=O)N1CCOCC1", "Potency": "inconclusive: 12.6 µM [inhibitor, partial curve, poor fit]"}
{"molecule": "C/C=N/NC(=O)c1cc(Br)ccc1O", "Potency": "inconclusive: 6.31 µM [inhibitor, single point]"}
{"molecule": "C/C(=N\\NC(=O)CNC(=O)c1ccc(Br)cc1)c1ccco1", "Potency": "inconclusive: 10 µM [inhibitor, partial curve, poor fit]"}
{"molecule": "Cc1cccc(NC(=O)c2nc[nH]c2C(=O)N[C@@H](C)C(=O)OC(C)(C)C)c1", "activity, negative = active": "inactive: 10.4%"}
{"molecule": "O=C(CCNS(=O)(=O)c1ccccc1C(F)(F)F)N1CCN(S(=O)(=O)c2cccc(Cl)c2)CC1", "Potency": "inconclusive: 5.62 µM [inhibitor, single point]"}
{"molecule": "CN(CCCC1CCCC1)C(=O)c1cc(COc2ccc(F)c(F)c2)on1", "Potency": "inconclusive: 35.5 µM [inhibitor, single point]"}
{"molecule": "COc1ccc(N)cc1-n1c(C)ccc1C", "Potency": "inconclusive: 25.1 µM [inhibitor, single point]"}
{"molecule": "CC1(C)C(=O)N(c2ccccc2)C1c1ccccc1O", "note": "(stereo unspecified)", "Potency": "inconclusive: 35.5 µM [inhibitor, single point]"}
{"molecule": "COc1cccc(CNC(=O)CSc2nc(=O)n(Cc3ccncc3)c3c2CCC3)c1", "Potency": "inconclusive: 2.51 µM [inhibitor, partial curve, poor fit]"}
{"molecule": "O=C(Cc1ccc(Br)cc1)Nc1cccc(Cl)c1", "Potency": "inconclusive: 22.4 µM [inhibitor, single point]"}
{"molecule": "c1ccc(CCNc2nc(-c3ccccn3)cs2)cc1", "Potency": "inconclusive: 20 µM [inhibitor, single point]"}
{"molecule": "COc1ccc(C(=O)N2C(=S)NC(=O)/C2=C\\c2ccc(C)cc2)cc1", "Potency": "inconclusive: 35.5 µM [inhibitor, single point]"}
{"molecule": "COc1ccccc1N1CCN(Cc2cc(Br)c(O)c3ncccc23)CC1", "Potency": "inconclusive: 3.55 µM [inhibitor, single point]"}
{"molecule": "Cc1ccc(Cl)cc1NC(=O)Nc1cn(CC(C)C)c(=O)c2ccccc12", "Potency": "inconclusive: 1.12 µM [inhibitor, full curve, poor fit]"}
{"molecule": "O=C(Nc1ccccc1F)c1nc(SCc2ccccc2F)ncc1Cl", "activity, negative = active": "inactive: 0.321%"}
{"molecule": "COc1ccc(NC(=O)CSc2nnc(Cn3cnc([N+](=O)[O-])n3)n2C)cc1", "Potency": "inconclusive: 35.5 µM [inhibitor, single point]"}
{"molecule": "CC(C)(C)N(Cc1cc2ccccc2[nH]c1=O)C(=O)c1cccc([N+](=O)[O-])c1", "Potency": "inconclusive: 35.5 µM [inhibitor, single point]"}
{"molecule": "CCc1cc2c(=O)c(-c3nc4ccccc4n3C)coc2c(CN2CCCCC2)c1O", "Potency": "inconclusive: 35.5 µM [inhibitor, single point]"}
{"molecule": "CC(C)C(=O)NC(C)C(c1cccs1)N1CCN(C)CC1", "note": "(stereo unspecified)", "Potency": "inconclusive: 28.2 µM [inhibitor, single point]"}
{"molecule": "COc1ccc(NC(=O)Nc2cc(C)cc(C)c2)cn1", "activity, negative = active": "inactive: -1.2%"}
{"molecule": "COc1cccc(C(=O)NC(=S)N2c3ccccc3CC2C)c1OC", "note": "(stereo unspecified)", "Potency": "inconclusive: 28.2 µM [inhibitor, single point]"}
{"molecule": "COc1ccc(-c2csc(C3=C(O)CN(Cc4ccc(Cl)cc4)C3=N)n2)cc1OC", "Potency": "inconclusive: 25.1 µM [inhibitor, single point]"}
{"molecule": "CCCCCCCC(=O)Nc1ccc(C(=O)N/N=C/c2cccc([N+](=O)[O-])c2)cc1", "Potency": "inconclusive: 1.78 µM [inhibitor, full curve, poor fit]"}
{"molecule": "Cc1ccc(CNC(=O)Cn2cc(C(=O)c3ccc(Cl)cc3)c(=O)c3ccc(C)nc32)cc1", "Potency": "active: 12.6 µM"}
{"molecule": "C=CCNC(=S)N/N=C(\\C)c1ccc(-n2ccnc2)cc1", "Potency": "inconclusive: 25.1 µM [inhibitor, single point]"}
{"molecule": "c1ccc(-c2ccc(-c3ccccc3)[nH]2)cc1", "Potency": "inconclusive: 22.4 µM [inhibitor, single point]"}
{"molecule": "CC(C)(O)CCc1c(-c2ccc(O)cc2O)oc2c3c(cc(O)c2c1=O)OC(C)(C)C=C3", "Potency": "inconclusive: 20 µM [inhibitor, single point]"}
{"molecule": "COc1ccc(CSc2nnnn2-c2ccccc2)cc1", "Potency": "inconclusive: 3.16 µM [inhibitor, single point]"}
{"molecule": "C/C(=N\\Nc1ccc(Cl)c(C(=O)O)c1)c1cc2ccccc2o1", "Potency": "inconclusive: 6.31 µM [inhibitor, partial curve, poor fit]"}
{"molecule": "O=S(=O)(c1ccc(NC(=S)NN=C2CCCCC2)cc1)N1CCOCC1", "Potency": "inconclusive: 10 µM [inhibitor, partial curve, poor fit]"}
{"molecule": "Cc1cc(/C=C2\\SC(=S)NC2=O)c(C)n1-c1cccc(O)c1", "Potency": "inconclusive: 22.4 µM [inhibitor, single point]"}
{"molecule": "CCOc1nc(-c2ccc(OC)cc2)ccc1-c1noc(-c2cc(OC)c(OC)c(OC)c2)n1", "Potency": "inconclusive: 35.5 µM [inhibitor, single point]"}
{"molecule": "CCOC(=S)SCC(=O)Nc1nc(-c2ccc(Br)cc2)cs1", "Potency": "inconclusive: 2.51 µM [inhibitor, partial curve, poor fit]"}
{"molecule": "O=C(NCc1ccccc1F)C1CCCN1C(=O)Nc1ccccc1", "note": "(stereo unspecified)", "Potency": "inconclusive: 22.4 µM [inhibitor, single point]"}
{"molecule": "O=C(N/N=C/C=C\\c1ccco1)c1cccs1", "Potency": "inconclusive: 17.8 µM [inhibitor, partial curve, poor fit]"}
{"molecule": "O=C(OCCCOC(=O)c1ccc([N+](=O)[O-])o1)c1ccc([N+](=O)[O-])o1", "Potency": "inconclusive: 2.82 µM [inhibitor, full curve, poor fit]"}
